From PubChem BioAssay AID504834 (National Center for Advancing Translational Sciences (NCATS), 2011)
Screen size: about 320,000 compounds; about 22,000 (6.9%) were called active. Inconclusive means that the source gave no clear call. Such entries were picked first, then a sample of the others. Calls follow the shape of the dose curve; as a rule, active = well fitted inhibition curve with a large enough effect; inconclusive = small, poorly fitted or top-dose-only effect, or another doubt; inactive = no such curve, though single readings can be large or run the other way. A potency beside an inconclusive call is a rough fit, not a confirmed value.

Assay: Primary qHTS for delayed death inhibitors of the malarial parasite plastid, 96 hour incubation
Settings: P. falciparum luciferase reporter growth; series mostly up to 28.7 µM; activity change, negative = inhibition: at the top concentration
Outline: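 96 h incubation, 37 C, 5% CO2, of luciferase-reporter P. falciparum-infected RBCs (2% hematocrit, 0.05% parasitemia final) with test compounds; endpoint luminescence.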
% is scaled to controls: 0 for no effect and ±100 for the full control effect; potency is read from the fitted curve at half-maximal effect.

Structure (SMILES)	Potency	activity change, negative = inhibition
CCCCN(C)C(=O)Cc1c(OC)ccc2cc(Br)ccc12	inconclusive: 3.7 µM [inhibitor, full curve]	
COc1ccccc1C1C=C(c2ccc(C)cc2)Nc2nnnn21 (configuration not stated)	inconclusive: 18.5 µM [inhibitor, single point]	
COc1ccc(Cl)cc1NC(=O)c1cccnc1		inactive: 0.238%
COc1ccc(-n2c(C)c([N+](=O)[O-])c3ccc(O)c(CN(C)C)c32)cc1	inconclusive: 0.928 µM [inhibitor, partial curve, poor fit]	
COc1cc2cc(C(=O)N[C@@H](Cc3ccccc3)C(=O)O)n(C)c2c(OC)c1OC	inconclusive: 8.28 µM [inhibitor, partial curve]	
CN(Cc1ccccc1)C(=O)NC1CCCCC1	inconclusive: 18.5 µM [inhibitor, single point]	
COc1ccccc1N(C)S(=O)(=O)c1ccc(C(=O)Nc2nc(C)c(C(C)=O)s2)cc1	inconclusive: 14.7 µM [inhibitor, partial curve, poor fit]	
COc1ccc(OCC(=O)N/N=C2/C=C(C)CC2)cc1	inconclusive: 9.28 µM [inhibitor, single point]	
CN(C(=O)c1cccc(N2C(=O)C3C4C=CC(C4)C3C2=O)c1)C1CCCCC1 (configuration not stated)		inactive: 21%
COc1ccc(C2CCCN2C(=S)Nc2cccc(C)c2)cc1OC (configuration not stated)	inconclusive: 0.657 µM [inhibitor, full curve, poor fit]	
Cc1nnc(SC(C)C(=O)Nc2c(C)n(C)n(-c3ccccc3)c2=O)n1N (configuration not stated)		inactive: 30.4%
CCOC(=O)c1sc(NC(=O)CSc2nc3ccccc3o2)c(C(=O)OCC)c1C	inconclusive: 5.86 µM [inhibitor, partial curve, poor fit]	
COc1ccc(/C=N/NC(=O)c2cc(OC)c(OC)c(OC)c2)cc1CN1CCc2cc(OC)c(OC)cc2C1C (configuration not stated)	inconclusive: 14.7 µM [inhibitor, partial curve, poor fit]	
CN(C(=O)COc1ccccc1C(=O)NCCOc1ccccc1)c1ccccc1	inconclusive: 13.1 µM [inhibitor, single point]	
COc1ccc(OC)c(CCNC(=O)CCCc2nnc3n(C)c(=O)c4sccc4n23)c1		inactive: 15.8%
CCSc1nnc(NC(=O)c2nc(-c3ccccc3)n(-c3ccccc3)n2)s1	inconclusive: 9.28 µM [inhibitor, partial curve, poor fit]	
CCc1ccc(C(=O)CC2(O)C(=O)N(CN3CCOCC3)c3ccccc32)cc1 (configuration not stated)	inconclusive: 0.0586 µM [inhibitor, full curve, poor fit]	
CCOC(=O)c1[nH]cnc1C(=O)Nc1cccc(Cl)c1	inconclusive: 18.5 µM [inhibitor, single point]	
OCCCCNCc1ccc(OCc2ccc(Cl)cc2)cc1	active: 14.7 µM	
Cc1cccc(N2C(=O)CC(SC(=Nc3ccccc3)Nc3ccccc3)C2=O)c1 (configuration not stated)	inconclusive: 18.5 µM [inhibitor, single point]	
O=C1OC(c2ccc(F)cc2)=C/C1=C\c1ccc(O)cc1		inactive: -6.59%

Part of the list above in order of number of heavy atoms, low to high.
Structure (SMILES)	Potency	activity change, negative = inhibition
CN(Cc1ccccc1)C(=O)NC1CCCCC1	inconclusive: 18.5 µM [inhibitor, single point]	
CCSc1nnc(NC(=O)c2nc(-c3ccccc3)n(-c3ccccc3)n2)s1	inconclusive: 9.28 µM [inhibitor, partial curve, poor fit]	
COc1ccc(OC)c(CCNC(=O)CCCc2nnc3n(C)c(=O)c4sccc4n23)c1		inactive: 15.8%

Following part

Structure (SMILES)	Potency	activity change, negative = inhibition
Cc1ccc(-c2nc(N/N=C/c3cccc([N+](=O)[O-])c3)c3ccccc3n2)cc1		inactive: 58%
COc1ccccc1CNC(c1ccccc1)c1ccccc1	inconclusive: 8.28 µM [inhibitor, single point]	
C/C(=N\NC(=O)COc1ccc(C)cc1Br)c1cc([N+](=O)[O-])cs1	inconclusive: 1.85 µM [inhibitor, full curve, poor fit]	
CCc1cc2ccc(C)cc2nc1SCC(=O)Nc1cc(C)on1	inconclusive: 1.85 µM [inhibitor, partial curve, poor fit]	
CC(C)C(=O)Nc1ccc(C(=O)NNC(=S)NC(=O)c2ccco2)cc1	inconclusive: 18.5 µM [inhibitor, partial curve, poor fit]	
COC(C(=O)Nc1ccnn1C1CCN(Cc2ccc(C)s2)CC1)c1ccccc1 (configuration not stated)		inactive: 64.2%
COc1ccc2oc(-c3ccccc3)c(C(=O)N3CCOCC3)c2c1	inconclusive: 18.5 µM [inhibitor, single point]	
CN(C)C(=O)c1cn(-c2ccccc2)c(=O)c2ccccc12	inconclusive: 0.586 µM [inhibitor, full curve, poor fit]	
Cc1cc(C)cc(OCCn2nnc3ccccc32)c1	inconclusive: 18.5 µM [inhibitor, single point]	
CCOc1ccc(Br)cc1CNCc1cccnc1	inconclusive: 18.5 µM [inhibitor, single point]	
CN(c1ccccc1)S(=O)(=O)c1cccc(NC(=O)CSc2nncs2)c1	inconclusive: 10.4 µM [inhibitor, single point]	
COc1cc(OC)cc(C(=O)N[C@H](C(=O)N2CCc3ccccc32)C(C)C)c1	inconclusive: 18.5 µM [inhibitor, single point]	
C=CCc1cc(C=C2C(=O)N(C)C(=O)N(C)C2=O)cc(OCC)c1OCc1ccccc1		inactive: -10.6%
CCCCOc1ccc(C(O)(CCN2CCOCC2)c2ccccc2)cc1 (configuration not stated)		inactive: 0%
Cn1c(=O)cc(OCCCC(=O)Nc2ccccn2)c2ccccc21	inconclusive: 0.0033 µM [inhibitor, full curve, poor fit]	
CC1=C(C)/C(=N\OS(=O)(=O)c2ccccc2)C=CC1=O	active: 13.1 µM	
Cc1oc(-c2ccccc2)nc1CSc1nc2c(c(=O)[nH]1)CCC2	inconclusive: 10.4 µM [inhibitor, single point]	
CCCCCN(C(=O)CCC(=O)OCc1cc(C(C)=O)ccc1OC)c1c(N)n(CCCC)c(=O)[nH]c1=O	inconclusive: 11.7 µM [inhibitor, single point]	
COc1ccc(/C=C/c2c(-c3cccc(C)c3)oc3ccc(-c4ccc5c(c4)OCO5)cc23)cc1	inconclusive: 18.5 µM [inhibitor, partial curve, poor fit]	
O=C(COC(=O)C1CC(=O)N(c2ccccc2)C1)c1ccccc1 (configuration not stated)	inconclusive: 0.522 µM [inhibitor, full curve, poor fit]	
Cn1c(CCc2nc3ccccc3[nH]2)n[nH]c1=S	inconclusive: 14.7 µM [inhibitor, partial curve, poor fit]	
